Binding data for 5 substances are collected here from patent publication US20150225704A1.

Amino acid sequences for entries named in this document (tags omitted).
UniProt O14733: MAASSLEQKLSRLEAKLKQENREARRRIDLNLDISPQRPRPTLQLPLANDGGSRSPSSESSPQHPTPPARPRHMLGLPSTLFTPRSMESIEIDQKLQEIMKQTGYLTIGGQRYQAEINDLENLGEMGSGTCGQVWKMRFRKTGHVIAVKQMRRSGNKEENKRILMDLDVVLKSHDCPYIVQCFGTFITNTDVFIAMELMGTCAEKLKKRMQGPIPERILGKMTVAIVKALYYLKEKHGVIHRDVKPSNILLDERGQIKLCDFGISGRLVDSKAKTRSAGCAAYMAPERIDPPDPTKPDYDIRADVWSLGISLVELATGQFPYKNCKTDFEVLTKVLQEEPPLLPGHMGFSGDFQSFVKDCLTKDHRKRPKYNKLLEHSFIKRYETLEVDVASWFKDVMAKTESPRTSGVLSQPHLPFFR
UniProt P45983: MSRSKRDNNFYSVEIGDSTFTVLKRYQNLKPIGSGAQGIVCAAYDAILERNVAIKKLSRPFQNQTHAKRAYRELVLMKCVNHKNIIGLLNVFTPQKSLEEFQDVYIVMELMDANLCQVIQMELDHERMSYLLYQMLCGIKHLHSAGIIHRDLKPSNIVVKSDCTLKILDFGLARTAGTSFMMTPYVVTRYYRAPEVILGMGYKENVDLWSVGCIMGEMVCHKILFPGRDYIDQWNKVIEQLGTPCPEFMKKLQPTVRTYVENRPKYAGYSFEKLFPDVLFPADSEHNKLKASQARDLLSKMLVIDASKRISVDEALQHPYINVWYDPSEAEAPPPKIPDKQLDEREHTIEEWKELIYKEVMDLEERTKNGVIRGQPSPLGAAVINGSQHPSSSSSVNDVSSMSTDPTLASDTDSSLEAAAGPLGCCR
UniProt P53779: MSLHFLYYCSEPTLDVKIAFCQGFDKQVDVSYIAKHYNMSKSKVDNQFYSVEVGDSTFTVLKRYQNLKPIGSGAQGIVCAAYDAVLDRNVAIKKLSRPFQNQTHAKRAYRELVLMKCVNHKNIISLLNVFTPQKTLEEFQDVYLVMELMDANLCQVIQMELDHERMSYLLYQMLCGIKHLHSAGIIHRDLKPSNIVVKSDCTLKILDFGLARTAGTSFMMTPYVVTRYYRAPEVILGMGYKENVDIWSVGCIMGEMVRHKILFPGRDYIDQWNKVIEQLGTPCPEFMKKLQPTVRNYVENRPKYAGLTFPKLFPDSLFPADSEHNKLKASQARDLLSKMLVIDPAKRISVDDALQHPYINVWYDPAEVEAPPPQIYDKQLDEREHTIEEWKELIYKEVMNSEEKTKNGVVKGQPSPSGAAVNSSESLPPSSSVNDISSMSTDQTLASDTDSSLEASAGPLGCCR

Results are given in words; binding and its absence hold for the method and conditions named. For some of these results: Binding seen in cells or lysates may run through a third protein. Some entries that bind do so weakly or less than the wild type. For some of these results: Where a sequence is shown, tags or fusion partners need not be part of it.

In assay [1] the target is myc-tagged full-length palmitoyl acyl transferase zinc-finger DHHC type containing 17 (zD17) (UniProt Q8IUH5). Nature of the assay: co-immunoprecipitation, HEK293 cells.
For assay [2] the target is unchanged. Briefly: co-immunoprecipitation, HEK293 cells (GFP-JNK3 in anti-myc zD17 immunoprecipitates).
The target in the next assay is FLAG-MKK7 wt (UniProt O14733). Nature of the assay: co-immunoprecipitation, HEK293 cells.
Assay [3] has as its target T1, GST-zD17 190-210 (motif-E fused with GST) (UniProt Q8IUH5).
T1 sequence (looked up): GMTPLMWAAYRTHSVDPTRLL
Nature of the assay: purified GST fusions incubated with JNK3.

In assay [4] the target is myc-tagged full-length palmitoyl acyl transferase zinc-finger DHHC type containing 17 (zD17) (UniProt Q8IUH5). Nature of the assay: in vitro affinity binding assay with purified proteins.
The target of assay [5] is GST-zD17 1-310 (cytosolic domain CD1) (UniProt Q8IUH5). Briefly: affinity binding of purified JNK3 to blotted GST-tagged cytosolic domains.

Turning to “GFP-JNK1 expressed in HEK293 cells (from UniProt P45983 1-427) (enzyme)”, the binding entry in assay [1] is recorded as “binds”.

Take “GFP-JNK2 expressed in HEK293 cells (from UniProt P45984 1-424) (enzyme)”: the binding entry in assay [1] is “binds”.

With “GFP-JNK3 (c-jun N-terminal kinase 3) expressed in HEK293 cells (from UniProt P53779 1-464) (enzyme)”, the binding entry in assay [2] is “binds”.

For “myc-tagged full-length palmitoyl acyl transferase zinc-finger DHHC type containing 17 (zD17) (from UniProt Q8IUH5 1-632) (enzyme)”, the binding entry in the assay with FLAG-MKK7 wt is on record as “binds”.

Regarding “purified JNK3 (GST-JNK3 from E. coli, GST removed with thrombin) (from UniProt P53779 1-464) (enzyme)”, the binding entry in assay [3], in assay [4] and in assay [5] was “binds” in each case.
